Assay results as given in paper PMC9749133.
No constants are given. Whether binding was seen depends on the method and setting. Some results given as binding are weak or reduced against the parent protein; the word gives no strength. Sequences can lack the tags named with a protein.

Chains of the proteins cited; added tags and fusions are not shown. Lines headed by an entry give the natural chain unless they say otherwise; changes in a name come on top. Residues count along the entry.
UniProt P25776: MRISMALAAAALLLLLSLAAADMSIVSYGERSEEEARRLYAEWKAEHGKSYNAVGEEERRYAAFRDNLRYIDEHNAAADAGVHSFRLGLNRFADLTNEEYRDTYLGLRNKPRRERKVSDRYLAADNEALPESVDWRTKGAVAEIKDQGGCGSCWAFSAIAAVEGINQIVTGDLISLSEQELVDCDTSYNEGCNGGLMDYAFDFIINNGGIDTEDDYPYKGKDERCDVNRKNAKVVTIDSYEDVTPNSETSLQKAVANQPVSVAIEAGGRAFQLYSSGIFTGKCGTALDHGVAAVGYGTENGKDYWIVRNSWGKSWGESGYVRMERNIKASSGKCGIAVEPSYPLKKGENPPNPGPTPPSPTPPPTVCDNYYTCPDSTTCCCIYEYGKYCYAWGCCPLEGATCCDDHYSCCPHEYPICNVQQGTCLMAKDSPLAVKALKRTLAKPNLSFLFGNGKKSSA
BD-OCP-4 (OCP 1-348 aa, in pGBKT7) (rice (Oryza sativa)): residues 1-348 of P25776
BD-OCP-2 (OCP 111-348 aa, in pGBKT7) (rice (Oryza sativa)): residues 111-348 of P25776

Experiments:
Experiment in all cases: two-hybrid; directed test in yeast strain Gold Y2H: pGBKT7 (BD) bait and pGADT7 (AD) prey; growth on SD/-Ade-His-Leu-Trp with X-alpha-gal, 30°C
[1] = molecular target: BD-OCP-2 (OCP 111-348 aa, in pGBKT7) (rice (Oryza sativa)) (UniProt P25776)
[2] = molecular target: BD-OCP (oryzain alpha chain precursor, full length, in pGBKT7) (rice (Oryza sativa)) (UniProt P25776)
[3] = molecular target: BD-OCP-4 (OCP 1-348 aa, in pGBKT7) (rice (Oryza sativa)) (UniProt P25776)

Measured: binding

B1: AD-OsSNAP32 (synaptosome-associated protein of 32 kD, full-length coding region in pGADT7) (protein, UniProt Q0E1I7 1-283)
chain: MSGRRSFFASKKPSRSSNPFDSDSDDGGREQRPARASSVPPPADQRGSLFGGGDGFSASSAAARSRYRNDFRDTGGVEAQSVQELEGYAAYKAEETTQRVQGCVRIAEEMRDTASKSLVTIHQQGQQITRTHMMTLDIDQDLSRSEKLLGDLGGIFSKKWKPKKNGEIRGPMLTRDDSFIRKGSHLEQRHKLGLSDHPPQSNARQFHSEPTSALQKVEMEKAKQDDGLSDLSNILTELKGMAVDMGTEIDRQTKALGDSEKDYDELNFRIKGANTRARRLLGK
binds: all assays above
